Reference: PubChem BioAssay AID2685 (National Center for Advancing Translational Sciences (NCATS), 2010)
The list shows a part of the results. The main result of the screen is listed elsewhere. These columns were measured beside it and carry no call. Most of these compounds were active or inconclusive in the main read-out, so they are no random draw. Potencies come from curve fits of mixed quality, noted in brackets.

Test: qHTS Assay for Lipid Storage Modulators in Drosophila S3 Cells;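 on cell number change: cells counted by Cell Tracker Red CMTPX staining in the red channel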
Settings: BODIPY lipid droplet fluorescence, 18-24 h; for cell number change: measured here: cell count max response, cells fed with added oleic acid
In short: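 Laser-scanning cytometry quantifies lipid droplet accumulation (500–530 nm total intensity; droplet/cell object ratio) in oleic acid-fed (400 uM added) Drosophila S3 cells treated with a concentration series. 20 uM Triacsin C defined 100% inhibition.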

[1] = measured here: lipid fluorescence (Fed channel) AC50, cells fed with added oleic acid
[2] = measured here: cell number channel AC50, cells fed with added oleic acid

**Q.** With CCOC(=O)C1CCN(C(=O)c2cc3c(-c4ccc(OC)c(OC)c4)nn(C)c3s2)CC1 as the compound, how does the AC50 [1] read?
**A.** 6.51 µM [falling, single point]

**Q.** For CC(=O)n1cc(/C=C2/N=C(c3ccccc3)OC2=O)c2ccccc21, which cell number change is on record?
**A.** 14.8%

**Q.** With O=C1Nc2ccc(F)cc2C12Nc1ccccc1-c1nnc(SCc3ccccc3F)nc1O2 (centres undefined) as the compound, how does the cell number change read?
**A.** -1.93%

**Q.** And the AC50 [2]?
**A.** 0.517 µM [rising, single point]

**Q.** Which cell number change does the source give for Cc1nonc1NC(=O)CSc1nnc(N)s1 here?
**A.** 12.2%

**Q.** Which cell number change does the source give for Cc1cc(C)cc(NC(=O)CSc2nc(=O)n3cc(C)ccc3n2)c1 here?
**A.** 22.2%

**Q.** What about the AC50 [2] of the same compound?
**A.** 0.092 µM [rising, full curve, poor fit]

**Q.** What about the AC50 [1] of the same compound?
**A.** 0.326 µM [rising, full curve]

**Q.** Which cell number change does the source give for Cc1ccc(OCC(=O)Nc2sc3c(c2C#N)CCC3)cc1 here?
**A.** -32.2%

**Q.** And the AC50 [2]?
**A.** 25.9 µM [falling, single point]

**Q.** For O=C(COc1ccccc1)NCC(=O)NC1CCCCC1, which cell number change is on record?
**A.** -20.4%

**Q.** And the AC50 [2]?
**A.** 1.64 µM [rising, partial curve]

**Q.** What about the AC50 [1] of the same compound?
**A.** 1.3 µM [rising, full curve]

**Q.** For O=C(CSc1nnc(CNC(=O)c2ccccc2)o1)Nc1ccc2c(c1)OCCO2, which cell number change is on record?
**A.** 24.3%

**Q.** And the AC50 [1]?
**A.** 29.1 µM [rising, single point]

**Q.** With Cc1nc2ccc([N+](=O)[O-])cc2[nH]1 as the compound, how does the cell number change read?
**A.** -43.8%

**Q.** What about the AC50 [2] of the same compound?
**A.** 25.9 µM [falling, single point]

**Q.** For Cc1ccc(Sc2nnc(Cc3ccccc3)c3ccccc23)cc1, which AC50 [2] is on record?
**A.** 6.51 µM [rising, single point]

**Q.** With COC(=O)CC1(c2ccccc2)C(=O)c2ccccc2C1=O as the compound, how does the cell number change read?
**A.** -95%

**Q.** What about the AC50 [2] of the same compound?
**A.** 0.103 µM [falling, full curve, poor fit]

**Q.** What about the AC50 [1] of the same compound?
**A.** 0.326 µM [falling, partial curve, poor fit]

**Q.** What does the source list for CCOC(=O)c1c(-c2ccc(C)cc2C)csc1NC(=O)CSc1nnnn1C?
**A.** cell number change: 5.81%; AC50 [2]: 2.06 µM [rising, partial curve]; AC50 [1]: 4.61 µM [falling, full curve, poor fit]

**Q.** With Cn1c(=O)oc2cc(S(=O)(=O)N3CCCC(C(=O)Nc4ccc5c(c4)OCCO5)C3)ccc21 (centres undefined) as the compound, how does the cell number change read?
**A.** 9.71%

**Q.** With CC(C)[C@H](NC(=O)N1CCn2c1nc1ccccc12)C(=O)N[C@@H](C(=O)O)c1ccccc1 as the compound, how does the cell number change read?
**A.** 31.7%

**Q.** What about the AC50 [2] of the same compound?
**A.** 25.9 µM [rising, partial curve, poor fit]

**Q.** For Cc1nc(NCCc2ccc(S(N)(=O)=O)cc2)c2c(C)c(C)sc2n1, which cell number change is on record?
**A.** -3.33%

**Q.** And the AC50 [2]?
**A.** 0.461 µM [rising, partial curve, poor fit]

**Q.** What does the source list for COc1cccc(/C=N/N2C(=O)CSC2=S)c1O?
**A.** AC50 [2]: 1.16 µM [rising, full curve]; AC50 [1]: 32.6 µM [rising, single point]

**Q.** For Cc1ccc(OCCC(=O)Nc2ccccc2C(=O)N2CCCCC2)cc1, which cell number change is on record?
**A.** 26.5%

**Q.** For Nn1c(COc2ccccc2F)nnc1SCC(=O)NC1CC1, which cell number change is on record?
**A.** -3.5%

**Q.** For COc1ccc(OCC(=O)NC(=S)Nc2ccc3c4c(cccc24)CC3)cc1, which AC50 [1] is on record?
**A.** 0.291 µM [rising, partial curve]

**Q.** What does the source list for CC(Sc1nnnn1C)C(=O)Nc1ccc(Oc2ccccc2)cc1 (centres undefined)?
**A.** cell number change: 0.553%; AC50 [1]: 29.1 µM [falling, single point]

**Q.** With CC(C)Cn1c(-c2csc(C(C)C)c2)n[nH]c1=S as the compound, how does the cell number change read?
**A.** -21.5%

**Q.** And the AC50 [1]?
**A.** 29.1 µM [falling, single point]

**Q.** For COc1ccc(N(CC(=O)NCC2CCCO2)C(=O)CCC(=O)Nc2cc(C)on2)cc1OC (centres undefined), which cell number change is on record?
**A.** -12.4%

**Q.** And the AC50 [1]?
**A.** 5.8 µM [falling, partial curve, poor fit]

**Q.** Which cell number change does the source give for Cc1ccc(C2N3CC4([N+](=O)[O-])CN2CC([N+](=O)[O-])(C3)C4(C)C)cc1 (centres undefined) here?
**A.** 11.6%

**Q.** What about the AC50 [1] of the same compound?
**A.** 0.259 µM [rising, full curve, poor fit]

**Q.** Which results are given for COc1ccc(NC(=O)CCNS(=O)(=O)c2cccc3nsnc23)cc1OC?
**A.** cell number change: 10%; AC50 [1]: 7.31 µM [rising, full curve, poor fit]

**Q.** With CC(NCc1ccco1)C(=O)N1CCc2ccccc2C1 (centres undefined) as the compound, how does the cell number change read?
**A.** -11.3%

**Q.** What about the AC50 [1] of the same compound?
**A.** 0.731 µM [falling, single point]

**Q.** For CCN1CCN(S(=O)(=O)c2cc(OC)c(Cl)cc2OC)CC1, which cell number change is on record?
**A.** 4.28%

**Q.** What about the AC50 [1] of the same compound?
**A.** 29.1 µM [falling, single point]

**Q.** For O=c1oc(-c2ccccc2[N+](=O)[O-])nc2ccccc12, which cell number change is on record?
**A.** -66%

**Q.** And the AC50 [2]?
**A.** 29.1 µM [falling, single point]

**Q.** What about the AC50 [1] of the same compound?
**A.** 29.1 µM [falling, single point]

**Q.** For COc1ccc(CN(CC(=O)NCc2ccccc2)C(=O)CCC(=O)Nc2nccs2)cc1, which cell number change is on record?
**A.** 114%

**Q.** What about the AC50 [2] of the same compound?
**A.** 29.1 µM [rising, single point]

**Q.** Which results are given for CC1CCCCN1S(=O)(=O)c1ccc(C(=O)Nc2nnc(-c3ccccc3Cl)o2)cc1 (centres undefined)?
**A.** cell number change: 17.4%; AC50 [1]: 1.46 µM [rising, partial curve]

**Q.** For CCOC(=O)C(C)(C)Sc1nc2c(cnn2-c2ccc(Cl)cc2)c(=O)[nH]1, which cell number change is on record?
**A.** -41.7%

**Q.** What about the AC50 [2] of the same compound?
**A.** 10.3 µM [falling, partial curve, poor fit]

**Q.** What about the AC50 [1] of the same compound?
**A.** 29.1 µM [falling, single point]

**Q.** With CCN(CC)S(=O)(=O)c1ccc2nc(SC)sc2c1 as the compound, how does the cell number change read?
**A.** 39%

**Q.** What about the AC50 [2] of the same compound?
**A.** 18.4 µM [rising, single point]

**Q.** For C=CCc1cccc(/C=N/NC(=O)COc2ccc(-n3cnnn3)cc2)c1O, which AC50 [1] is on record?
**A.** 0.116 µM [falling, single point]

**Q.** Which cell number change does the source give for CC(=O)c1ccc(NC(=O)CCc2nnc3ccc(N4CCC5(CC4)OCCO5)nn23)cc1 here?
**A.** 17.6%

**Q.** What about the AC50 [2] of the same compound?
**A.** 0.058 µM [rising, full curve, poor fit]

**Q.** What about the AC50 [1] of the same compound?
**A.** 23.1 µM [rising, single point]

**Q.** For C=CCOc1ccc(/C=N/NC(=O)C(=O)N2CCCCCC2)cc1OC, which cell number change is on record?
**A.** 8.73%

**Q.** Which cell number change does the source give for O=[N+]([O-])c1cccc(S(=O)(=O)Nc2ccc(-c3ccc(N4CCCC4)nn3)cc2)c1 here?
**A.** 21.7%

**Q.** And the AC50 [1]?
**A.** 23.1 µM [rising, single point]

**Q.** With COc1ccc(C(=O)NCc2nnc(SCC(=O)c3ccccc3)o2)cc1 as the compound, how does the cell number change read?
**A.** 25.5%

**Q.** And the AC50 [1]?
**A.** 18.4 µM [rising, partial curve]

**Q.** Which cell number change does the source give for COc1ccc(S(=O)(=O)N(C)C)cc1NCC(=O)Nc1ccc(Br)c(C)c1 here?
**A.** 26.3%

**Q.** And the AC50 [2]?
**A.** 1.3 µM [rising, full curve, poor fit]

**Q.** For COc1cccc(NC(=O)c2cc3cccc(OC)c3o/c2=N\O)c1, which cell number change is on record?
**A.** -60%

**Q.** And the AC50 [2]?
**A.** 20.6 µM [falling, single point]

**Q.** What about the AC50 [1] of the same compound?
**A.** 29.1 µM [falling, single point]
